Experimental findings from patent publication US20240424119A1, “USE OF POLYPEPTIDE IN RESISTANCE TO ADDICTION AND RELAPSE THEREOF, AND COMPLEX AND POLYPEPTIDE” (SHENZHEN CHENYANG BIOLOGICAL TECHNOLOGY CO., LTD, priority 2021, published 2024) are described below.

The chains behind the UniProt entries cited, without tags or fusion partners. Where a name states a change or a piece, a line headed by the entry shows the natural chain unless it says otherwise. Residues count along the entry.
UniProt Q01097, residues 27-1482: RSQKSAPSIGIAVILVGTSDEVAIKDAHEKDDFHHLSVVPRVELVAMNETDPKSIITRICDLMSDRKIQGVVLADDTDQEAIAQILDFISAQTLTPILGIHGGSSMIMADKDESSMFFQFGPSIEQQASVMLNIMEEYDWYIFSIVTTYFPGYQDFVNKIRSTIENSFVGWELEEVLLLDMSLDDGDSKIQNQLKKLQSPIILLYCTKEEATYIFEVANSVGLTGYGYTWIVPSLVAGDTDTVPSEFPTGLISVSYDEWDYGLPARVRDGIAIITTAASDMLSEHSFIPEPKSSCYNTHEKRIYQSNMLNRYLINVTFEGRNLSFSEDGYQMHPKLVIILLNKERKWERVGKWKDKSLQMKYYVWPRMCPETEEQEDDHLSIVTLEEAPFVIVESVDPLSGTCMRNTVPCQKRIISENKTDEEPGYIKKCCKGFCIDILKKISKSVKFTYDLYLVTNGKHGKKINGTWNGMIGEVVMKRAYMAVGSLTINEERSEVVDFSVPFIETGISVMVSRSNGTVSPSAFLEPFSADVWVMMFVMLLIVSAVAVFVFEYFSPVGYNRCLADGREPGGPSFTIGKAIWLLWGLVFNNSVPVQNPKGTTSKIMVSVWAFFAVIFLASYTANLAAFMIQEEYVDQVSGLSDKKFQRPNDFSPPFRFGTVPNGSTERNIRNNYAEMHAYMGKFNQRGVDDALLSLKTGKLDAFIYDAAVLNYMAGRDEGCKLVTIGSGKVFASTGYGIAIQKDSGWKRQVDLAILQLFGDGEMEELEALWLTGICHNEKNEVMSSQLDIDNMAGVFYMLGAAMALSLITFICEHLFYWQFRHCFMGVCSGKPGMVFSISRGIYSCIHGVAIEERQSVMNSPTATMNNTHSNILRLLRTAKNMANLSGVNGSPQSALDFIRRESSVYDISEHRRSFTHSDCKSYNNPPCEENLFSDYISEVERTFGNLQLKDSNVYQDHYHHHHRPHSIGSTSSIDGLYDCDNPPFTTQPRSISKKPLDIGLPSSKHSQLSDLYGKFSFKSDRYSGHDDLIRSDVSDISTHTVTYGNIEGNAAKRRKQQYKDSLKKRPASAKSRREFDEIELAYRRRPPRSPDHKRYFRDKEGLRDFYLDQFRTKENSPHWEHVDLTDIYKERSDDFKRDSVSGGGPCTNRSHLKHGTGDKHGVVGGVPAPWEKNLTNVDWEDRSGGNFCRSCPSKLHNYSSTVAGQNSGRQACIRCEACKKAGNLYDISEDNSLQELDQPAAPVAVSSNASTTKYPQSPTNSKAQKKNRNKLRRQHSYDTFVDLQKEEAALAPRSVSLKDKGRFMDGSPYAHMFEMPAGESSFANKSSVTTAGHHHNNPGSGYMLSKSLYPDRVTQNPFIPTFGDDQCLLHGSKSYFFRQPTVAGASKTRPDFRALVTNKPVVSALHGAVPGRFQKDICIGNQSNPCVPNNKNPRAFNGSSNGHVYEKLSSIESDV
UniProt P14416: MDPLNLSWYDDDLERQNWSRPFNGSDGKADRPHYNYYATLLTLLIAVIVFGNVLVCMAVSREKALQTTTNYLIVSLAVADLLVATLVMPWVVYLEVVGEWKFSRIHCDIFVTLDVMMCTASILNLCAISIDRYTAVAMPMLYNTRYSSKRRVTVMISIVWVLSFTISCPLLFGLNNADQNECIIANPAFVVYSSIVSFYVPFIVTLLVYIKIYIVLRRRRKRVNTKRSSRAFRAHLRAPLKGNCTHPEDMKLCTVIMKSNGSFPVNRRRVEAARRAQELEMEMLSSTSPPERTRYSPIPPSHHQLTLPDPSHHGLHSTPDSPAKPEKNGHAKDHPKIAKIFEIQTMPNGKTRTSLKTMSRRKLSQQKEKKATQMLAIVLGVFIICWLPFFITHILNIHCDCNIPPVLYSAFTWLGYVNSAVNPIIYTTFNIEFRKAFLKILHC

The assay has as its target NR2B subunit of the NMDA receptor, endogenous, from mouse hippocampus tissue (mouse) (UniProt Q01097). As to the kind of experiment: GST pulldown from mouse hippocampus extract, Western blot. Background: A western blot detects proteins with antibodies after separation by electrophoresis.

These are yes or no findings as the source states them, for the method shown. In cells and extracts the contact can be indirect. Some results given as binding are weak or reduced against the parent protein; the word gives no strength.

For “GST fusion protein containing the IL3 region of D2R (GST-D2R-IL3) (from UniProt P14416 211-373)”, the binding entry is recorded as “binds”. The value for “GST fusion protein containing the KVC region of D2R (GST-D2R-KVC) (from UniProt P14416 211-270)” was “binds”.
